PubChem BioAssay AID1224829 | NIAID | 2016

- Purpose: 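Secondary check of hits that alter LPS-induced p65 translocation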 (follow-up of hits)
- Cell system: mouse RAW264.7 G9 macrophage reporter cells
- Reagent: single siRNA against mouse genes, 100 nM
- Time to read-out: 2 days of siRNA knock-down, then 40 min of LPS before fixing
- Conditions: LPS (Salmonella minnesota R595) at 10 ng/ml
- Measurement: 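High-content images after 40 min LPS exposure; GFP-p65 nucleus to surrounding ring signal ratio, normalised to plate median and non-targeting control wells, expressed as z-score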
- Scale: p65 translocation z-score: higher = more nuclear NF-kappaB p65 after LPS
- Active means: 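An siRNA is called active when the mean z-score of its two replicates is above 2 or below -2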
- Calls: active = changed p65 translocation (either direction); inactive = no clear change
This is an unselected part of about 3,800 deposited reagents. 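Calls cover raised and lowered translocation; gene median uses one vendor's three siRNAs; qiagen siRNAs acted more weakly than ambion siRNAs.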 Unmarked entries are inactive. The numbers tell different reagents against one gene apart. Further read-outs or replicates are left out here. Reagent sequences are not shown.

How did the screen score Ikzf1 #1, siRNA vendor or control pool ambion single siRNA?
p65 translocation z-score, replicate mean: -2.81 (active)

With Ikzf1 #2, siRNA vendor or control pool ambion single siRNA, what does the deposit list?
p65 translocation z-score, replicate mean: -2.67 (active)

With Ikzf1 #3, siRNA vendor or control pool ambion single siRNA, what does the deposit list?
p65 translocation z-score, replicate mean: -3.79 (active)

For Ikzf1 #4, siRNA vendor or control pool qiagen single siRNA, what does the deposit list?
p65 translocation z-score, replicate mean: 0.922

For Ikzf1 #5, siRNA vendor or control pool qiagen single siRNA, what was measured?
p65 translocation z-score, replicate mean: 3.96 (active)

For Ikzf1 #6, siRNA vendor or control pool qiagen single siRNA, what does the deposit list?
p65 translocation z-score, replicate mean: -1.7

With Or5d36 #1, siRNA vendor or control pool ambion single siRNA, what does the deposit list?
p65 translocation z-score, replicate mean: -1.63

What is on record for Or5d36 #2, siRNA vendor or control pool ambion single siRNA?
p65 translocation z-score, replicate mean: -1.83

What did the screen give for Or5d36 #3, siRNA vendor or control pool ambion single siRNA?
p65 translocation z-score, replicate mean: -1.61

What is on record for Or5d36 #4, siRNA vendor or control pool qiagen single siRNA?
p65 translocation z-score, replicate mean: 0.191

For Or5d36 #5, siRNA vendor or control pool qiagen single siRNA, what was measured?
p65 translocation z-score, replicate mean: -0.987

With Or5d36 #6, siRNA vendor or control pool qiagen single siRNA, how do the results read?
p65 translocation z-score, replicate mean: -2.26 (active)

With Spag1 #1, siRNA vendor or control pool ambion single siRNA, what does the deposit list?
p65 translocation z-score, replicate mean: -2.57 (active)

What did the screen give for Spag1 #2, siRNA vendor or control pool ambion single siRNA?
p65 translocation z-score, replicate mean: -7.15 (active)

For Spag1 #3, siRNA vendor or control pool ambion single siRNA, what does the deposit list?
p65 translocation z-score, replicate mean: -3.9 (active)

What is on record for Spag1 #4, siRNA vendor or control pool qiagen single siRNA?
p65 translocation z-score, replicate mean: -0.835

With Spag1 #5, siRNA vendor or control pool qiagen single siRNA, what does the deposit list?
p65 translocation z-score, replicate mean: -2.55 (active)

Which result is listed for Spag1 #6, siRNA vendor or control pool qiagen single siRNA?
p65 translocation z-score, replicate mean: -6.77 (active)

How did the screen score Cntf #1, siRNA vendor or control pool ambion single siRNA?
p65 translocation z-score, replicate mean: -1.61

For Cntf #2, siRNA vendor or control pool ambion single siRNA, what does the deposit list?
p65 translocation z-score, replicate mean: 0.0488

How did the screen score Cntf #3, siRNA vendor or control pool ambion single siRNA?
p65 translocation z-score, replicate mean: -1.57

With Cntf #4, siRNA vendor or control pool qiagen single siRNA, what does the deposit list?
p65 translocation z-score, replicate mean: 1.83

With Cntf #5, siRNA vendor or control pool qiagen single siRNA, how do the results read?
p65 translocation z-score, replicate mean: -0.155

For Cntf #6, siRNA vendor or control pool qiagen single siRNA, what was measured?
p65 translocation z-score, replicate mean: -0.473

Reagents above called active (10):
Ikzf1 #1, siRNA vendor or control pool ambion single siRNA → p65 translocation z-score, replicate mean = -2.81 (active)
Ikzf1 #2, siRNA vendor or control pool ambion single siRNA → p65 translocation z-score, replicate mean = -2.67 (active)
Ikzf1 #3, siRNA vendor or control pool ambion single siRNA → p65 translocation z-score, replicate mean = -3.79 (active)
Ikzf1 #5, siRNA vendor or control pool qiagen single siRNA → p65 translocation z-score, replicate mean = 3.96 (active)
Or5d36 #6, siRNA vendor or control pool qiagen single siRNA → p65 translocation z-score, replicate mean = -2.26 (active)
Spag1 #1, siRNA vendor or control pool ambion single siRNA → p65 translocation z-score, replicate mean = -2.57 (active)
Spag1 #2, siRNA vendor or control pool ambion single siRNA → p65 translocation z-score, replicate mean = -7.15 (active)
Spag1 #3, siRNA vendor or control pool ambion single siRNA → p65 translocation z-score, replicate mean = -3.9 (active)
Spag1 #5, siRNA vendor or control pool qiagen single siRNA → p65 translocation z-score, replicate mean = -2.55 (active)
Spag1 #6, siRNA vendor or control pool qiagen single siRNA → p65 translocation z-score, replicate mean = -6.77 (active)
